Measurements: PubChem BioAssay AID330 (DTP/NCI, 2004)
The list is a part of this screen's results and no random one: it gathers tests that were run many times, whatever their T/C, doses with no T/C, and many T/C values between a quarter and a half above the control. Other doses and runs of a compound stand elsewhere. T/C gives the treated animals as a percentage of the vehicle group. Some entries give survivors of the animals treated and no T/C: the source files T/C as zero there, which appears to mark a toxic dose or a test without result, not a measured value. Some doses without a T/C left all or most animals alive at the check, yet need not have been tolerated: survival well below the control is almost never listed, so the zero probably covers shortened survival too. Survivors were counted at the toxicity check, usually on the fifth day, unless a day is given; later deaths do not show. Schedule codes are those of the source, read here as Q, the interval in days (D) or hours (H), X, the number of doses. Some entries hold several experiments; the values are given in rising order. For survival time, the PubChem record calls one and a half times the control and up active, and a quarter to a half above the control has no call in these data; cut-offs in other NCI protocols can differ.

Test system: P388 leukemia ip, CD2F1 mice, survival T/C
Test: NCI In Vivo Anticancer Drug Screen. Data for tumor model P388 Leukemia (intraperitoneal) in CD2F1 (CDF1) mice
Settings: T/C endpoint: median survival time, higher T/C = longer survival
[1] = dose: 200.0 mg/kg/injection, schedule: Q01DX009 (ip), vehicle: saline
[2] = dose: 100.0 mg/kg/injection, schedule: Q01DX009 (ip), vehicle: saline
[3] = dose: 50.0 mg/kg/injection, schedule: Q01DX009 (ip), vehicle: saline

SMILES: COc1ccc(C2C3=C(CCCC3=O)Oc3cc4c(cc32)OCO4)cc1 (centres undefined)
- survivor count (dose: 120.0 mg/kg/injection, schedule: Q01DX005 (ip), vehicle: saline with Tween-80): 6 of 6
- survivor count (dose: 240.0 mg/kg/injection, schedule: Q01DX005 (ip), vehicle: saline with Tween-80): 6 of 6

SMILES: FC(F)(F)c1cc(Cl)nc(Cl)n1
- survivor count (dose: 50.0 mg/kg/injection, schedule: Q01DX005 (ip), vehicle: saline with Tween-80): 0 of 5
- survivor count (dose: 100.0 mg/kg/injection, schedule: Q01DX005 (ip), vehicle: saline with Tween-80): 0 of 5
- survivor count (dose: 200.0 mg/kg/injection, schedule: Q01DX005 (ip), vehicle: saline with Tween-80): 0 of 5

SMILES: C=Cn1ccnc1C.C=Cn1ccnc1C.CC(=O)CC(C)=O.CC(=O)CC(C)=O.[Co]
- survivor count (dose: 100.0 mg/kg/injection, schedule: Q04DX003 (ip), vehicle: saline): 5 of 6

SMILES: C[N+](C)(C)N
- survivor count [1]: 0 of 6

SMILES: COc1cc2c(cc1OC)C(Cc1ccsc1)NCC2 (centres undefined)
- survivor count (dose: 200.0 mg/kg/injection, schedule: Q04DX002 (ip), vehicle: Klucel (hydroxypropylcellulose) (HPC)): 0 of 5

SMILES: COc1cc(=O)cc2n(-c3cc(OC)c(O)c(OC)c3)c3ccccc3nc1-2
- survivor count [2]: 6 of 6

SMILES: Cc1c(C)[n+](=O)c2ccc(/C=N/N3CCOC3=O)cc2n1[O-]
- survivor count (dose: 50.0 mg/kg/injection, schedule: Q01DX009 (ip), vehicle: Klucel (hydroxypropylcellulose) (HPC)): 6 of 6
- survivor count (dose: 200.0 mg/kg/injection, schedule: Q01DX009 (ip), vehicle: Klucel (hydroxypropylcellulose) (HPC)): 6 of 6

SMILES: CC(=O)OC1(OC(C)=O)C=C2OCOC2=CC1=O
- survivor count (dose: 35.0 mg/kg/injection, schedule: Q01DX005 (ip), vehicle: Klucel (hydroxypropylcellulose) (HPC)): 0 of 6

SMILES: CCCCCC(C[N+](C)(C)C)C(=O)/C=C/c1ccc(Cl)c(Cl)c1 (centres undefined)
- survivor count (dose: 25.0 mg/kg/injection, schedule: Q01DX009 (ip), vehicle: saline): 2 of 6
- survivor count [3]: 3 of 6

SMILES: O=C(Cc1nc2ccccc2[nH]c1=O)c1ccccc1
- survivor count [3]: 6 of 6
- survivor count [2]: 6 of 6
- survivor count [1]: 6 of 6

SMILES: COC(=O)C#CCO
- survivor count (dose: 100.0 mg/kg/injection, schedule: Q01DX009 (ip), vehicle: water): 0 of 5 and 3 of 6
- survivor count (dose: 200.0 mg/kg/injection, schedule: Q01DX009 (ip), vehicle: water): 0 of 6

SMILES: COc1cccc2c1C(=O)c1c(O)c3c(c(O)c1C2=O)C[C@@](O)(CCO)C[C@@H]3OC1CC(N)C(O)C(C)O1 (some centres undefined)
- T/C (dose: 0.39 mg/kg/injection, schedule: Q01DX009 (ip), vehicle: water): 128 % of control
- T/C (dose: 4.7 mg/kg/injection, schedule: Q04DX003 (ip), vehicle: water): 128 % of control
- survivor count (dose: 6.25 mg/kg/injection, schedule: Q01DX009 (ip), vehicle: water): 6 of 6
- T/C (dose: 9.4 mg/kg/injection, schedule: Q04DX003 (ip), vehicle: water): 133 % of control
- survivor count (dose: 12.5 mg/kg/injection, schedule: Q01DX009 (ip), vehicle: water): 6 of 6
- T/C (dose: 18.8 mg/kg/injection, schedule: Q04DX003 (ip), vehicle: water): 146 % of control
- survivor count (dose: 25.0 mg/kg/injection, schedule: Q01DX009 (ip), vehicle: water): 6 of 6
- T/C (dose: 37.5 mg/kg/injection, schedule: Q04DX003 (ip), vehicle: water): 133 and 146 % of control

SMILES: CC(C)(/C=N/O)N1CC=CCC1
- survivor count (dose: 100.0 mg/kg/injection, schedule: Q04DX002 (ip), vehicle: saline with Tween-80): 0 of 6
- survivor count (dose: 200.0 mg/kg/injection, schedule: Q04DX002 (ip), vehicle: saline with Tween-80): 0 of 6
- survivor count (dose: 400.0 mg/kg/injection, schedule: Q04DX002 (ip), vehicle: saline with Tween-80): 0 of 6

SMILES: O=[N+]([O-])c1ccccc1N=NNc1ccccc1
- survivor count (dose: 400.0 mg/kg/injection, schedule: Q01DX009 (ip), vehicle: Klucel (hydroxypropylcellulose) (HPC)): 6 of 6

SMILES: CN(C)c1ccc2c(=O)c(C(=O)O)c[nH]c2c1
- survivor count (dose: 100.0 mg/kg/injection, schedule: Q01DX005 (ip), vehicle: saline): 6 of 6
- survivor count (dose: 200.0 mg/kg/injection, schedule: Q01DX005 (ip), vehicle: saline): 6 of 6

SMILES: C/C(=N\NC(=S)N1CCCCC1)c1ccccn1
- survivor count (dose: 25.0 mg/kg/injection, schedule: Q01DX009 (ip), vehicle: saline with Tween-80): 4 of 6
